Results taken from the supplement of paper PMC10735217.
Where a name gives a salt, the structure may show the parent alone. The list shows a part of the results. This data set is noisy: repeats of one test often differ as much as different tests do.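 Human kidney-derived cells stably carry a construct in which eight TEAD-binding elements drive luciferase, measured by luminescence in a drug-repurposing library screen. A hit is any compound whose signal exceeds the plate mean by more than five robust Z scores.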

System: HEK293A TEAD-LUC reporter
Experiment: TEAD-luciferase reporter activity (YAP activation), robust Z score vs plate; higher = stronger YAP/TEAD activation
Conditions: 24 h

Compound | TEAD-luciferase reporter activity (compound concentration: 200 nM) | TEAD-luciferase reporter activity (compound concentration: 2 uM) | TEAD-luciferase reporter activity (compound concentration: 10 uM)
CCN(CC)c1ccc(NC(=O)c2ccccc2N)c(C)c1 | inactive: -1.43 | inactive: -0.677 | inactive: -0.514
CCOC(=O)[C@H](Cc1ccccc1)NC(=O)c1cc(Cl)c(OCCN2CCN(C)CC2)c(Cl)c1O | inactive: -0.999 | inactive: -1.68 | inactive: 4.38
CC(Cc1ccc(O)c(O)c1)C(C)Cc1ccc(O)c(O)c1 (stereo not given) [Masoprocol] |  | inactive: -0.0431 | 
CC(Cc1ccc(O)c(O)c1)C(C)Cc1ccc(O)c(O)c1 (stereo not given) [Nordihydroguaiaretic acid] | inactive: 0.551 |  | active: 6.12
CCOC(=O)c1ccccc1OC(=O)CCCCCCCC(=O)Oc1ccccc1C(=O)OCC | inactive: 1.76 | inactive: -1.97 | inactive: 0.0155
[O]=[W](=[O])([OH])[OH] [Sodium tungstate dihydrate] | inactive: -0.668 | inactive: 0.248 | inactive: -0.317
O=c1c2c(c1=O)N(CCP(=O)(O)O)CCCN2 [Perzinfotel] | inactive: -0.535 | inactive: -0.397 | inactive: 0.232
C#Cc1cccc(-c2cc(=O)n(C)c3ccc(C(O)(c4ccc(Cl)cc4)c4cncn4C)cc23)c1 (stereo not given) | inactive: -1.06 | inactive: -0.392 | inactive: 0.796
CCOc1ccc(S(=O)(=O)Nc2ncccn2)cc1 | inactive: 2.45 | inactive: -0.893 | inactive: -1.49
[CH3][Co+][N]1/C2=C(/C)C3=N/C(=C\C4=NC(=C(/C)C5=N[C@H]([C@H](CC(N)=O)[C@@]5(C)CCC(=O)NCC(C)OP(=O)([O-])O[C@H]5[C@@H](O)[C@@H](n6cnc7cc(C)c(C)cc76)O[C@@H]5CO)[C@@]1(C)[C@@](C)(CC(N)=O)[C@@H]2CCC(N)=O)/[C@@H](CCC(N)=O)C4(C)C)[C@@H](CCC(N)=O)[C@]3(C)CC(N)=O (stereo not given in full) [Mecobalamin] | inactive: -1.06 | inactive: -2.19 | inactive: -2.23
COCCn1c(N[C@@H](CO)c2ccc(OC)c(OC)c2)nc2c1c(=O)n(C)c(=O)n2C | inactive: -0.473 | inactive: 0.111 | active: 5.22
Oc1ccc(C2COc3cc(O)ccc3C2)cc1 (stereo not given) | inactive: -0.554 | inactive: 4.41 | inactive: 0.96
O=C(OCCCc1ccccc1)c1ccccc1 | inactive: 0.556 | inactive: -1.29 | inactive: -0.207
Nc1ncc(-c2ccccc2Cl)c(N)n1 | inactive: 0.543 | inactive: -0.434 | inactive: -0.243
Cc1nc2ccc(CCCNC(=O)C3(CC(C)C(=O)O)CCCC3)cc2s1 (stereo not given) | inactive: -0.756 | inactive: 0.214 | inactive: 1.04
O=C(CN1CCNCC1)NC1CCCCC1 [Esaprazole hydrochloride] | inactive: 0.35 | inactive: -0.586 | inactive: -1.21
CC(C)OCOCCCOn1cnc2cnc(N)nc21 | inactive: -1.4 | inactive: 0.346 | inactive: 2.99
Cc1cc2nc3c4ccccc4n(CCN(C)C)c3nc2cc1C | inactive: 0.336 | inactive: 1.46 | active: 9.54
Cc1c(N2CC(NC(C)C)C2)c(F)cc2c(=O)c(C(=O)O)cn(-c3nc(N)c(F)cc3F)c12 | inactive: 2.05 | inactive: -0.658 | inactive: -1.15

Compound | TEAD-luciferase reporter activity (compound concentration: 200 nM) | TEAD-luciferase reporter activity (compound concentration: 2 uM) | TEAD-luciferase reporter activity (compound concentration: 10 uM)
CCc1nc2c(C)nc(C)cc2n1-c1ccc(CCNC(=O)NS(=O)(=O)c2ccc(C)cc2)cc1 | inactive: -0.232 | inactive: -1.65 | inactive: 1.88
O=C(NCCC1CCCCC1)c1ccc2nccn2c1 | inactive: 1.34 |  | inactive: 2.19
NC(C(=O)N[C@@H]1C(=O)N2C(C(=O)O)=C(Cl)CS[C@H]12)c1ccccc1 (stereo not given in full) [cefaclor] |  | inactive: -0.815 | 
NC(C(=O)N[C@@H]1C(=O)N2C(C(=O)O)=C(Cl)CS[C@H]12)c1ccccc1 (stereo not given in full) [Cefaclor] | inactive: 0.678 |  | inactive: -0.145
COc1ccc(CCN(C)CCCN2CCc3cc(OC)c(OC)cc3C2=O)cc1OC | inactive: 1.83 | inactive: 1.09 | inactive: 1.05
NC(=O)c1cc(-c2ccncc2)[nH]c1-c1ccccc1 | inactive: 0.229 | inactive: -1.69 | inactive: -2.34
CCCCCC(O)CCCC(=O)[O-] (stereo not given) | inactive: -2.17 | inactive: 1.08 | inactive: -1.31
CC(=O)N1CC2(Cc3ccccc3CN2C(C)=O)C1 | inactive: -2.56 |  | inactive: 1.56
Cc1ncc([N+](=O)[O-])n1CC(O)CCl (stereo not given) [Ornidazole] |  | inactive: 3.5 | 
Cc1ncc([N+](=O)[O-])n1CC(O)CCl (stereo not given) | inactive: -0.202 |  | inactive: -1.56
CCCCCCCC(=O)NCCCC[C@H](NC(=O)[C@H](Cc1c[nH]c2ccccc12)NC(=O)[C@H](CC(N)=O)NC(=O)[C@@H]1CCC(=O)N1)C(=O)O | inactive: -0.624 | inactive: -0.494 | inactive: -0.00661
COc1ccc(CCNC[C@H](O)c2ccc(O)cc2)cc1OC [Denopamine] | inactive: -2.24 | inactive: -0.767 | inactive: 2.24
CC#C[C@@H](CC(=O)O)c1ccc(OCc2ccc(CN3CCC4(C=Cc5ccccc54)CC3)cc2)cc1 | inactive: -1.08 | inactive: -1.05 | inactive: -1.03
C[C@]12CCC3C(CC=C4CC5(CC[C@@]43CCN)OCCO5)C1CCC21OCCO1 (stereo not given in full) | inactive: -2.49 | inactive: 1.63 | inactive: 4.76
Cc1c(NCCN2CCCC2)cc(C(=O)CCC(F)(F)F)cc1N1CCN(c2ncnc3[nH]nc(Br)c23)CC1 | inactive: -0.684 | inactive: 2.54 | inactive: -0.575
O=Cc1ccc(N2CCOCC2)cc1O | inactive: -1.5 | inactive: -1.2 | inactive: 1.08
COc1ccc2c(c1OCc1ccccc1)C[C@H](C(=O)O)N(C(=O)C(c1ccccc1)c1ccccc1)C2 | inactive: 0.283 | inactive: -1.03 | inactive: -0.626
CC/C=C\C/C=C\C/C=C\C/C=C\C/C=C\C/C=C\CCC(=O)OCc1cccnc1 | inactive: -1.81 | inactive: 2.9 | inactive: 1.17
